# Assay results reported in US11179438B1, “Chicken cathelicidins as a cancer therapy” (King Abdulaziz University, priority 2021, dated 2021).
# At least one structure is not confirmed: it was looked up by name or label, or the drawing left a doubt.
# System: Ehrlich ascites cells (EAC)
# Assay: Animal survival of EAC-bearing mice
# Format: in vivo, BALB/c mice
# Conditions: 21 days
smiles,measurement,setting,value
CC[C@H](C)[C@H](NC(=O)[C@H](CCCCN)NC(=O)[C@H](CCC(=O)O)NC(=O)[C@H](CCCCN)NC(=O)[C@H](CO)NC(=O)[C@H](CCCCN)NC(=O)[C@H](CCCNC(=N)N)NC(=O)[C@H](Cc1ccccc1)NC(=O)[C@H](Cc1ccccc1)NC(=O)[C@H](CC(=O)O)NC(=O)CNC(=O)[C@H](CC(C)C)NC(=O)[C@@H](N)CC(C)C)C(=O)NCC(=O)N[C@@H](CCCCN)C(=O)N[C@@H](CCC(=O)O)C(=O)N[C@@H](Cc1ccccc1)C(=O)N[C@@H](CCCCN)C(=O)N[C@@H](CCCNC(=N)N)C(=O)N[C@H](C(=O)N[C@H](C(=O)N[C@@H](CCC(N)=O)C(=O)N[C@@H](CCCNC(=N)N)C(=O)N[C@H](C(=O)N[C@@H](CCCCN)C(=O)N[C@@H](CC(=O)O)C(=O)N[C@@H](Cc1ccccc1)C(=O)N[C@@H](CC(C)C)C(=O)N[C@@H](CCCNC(=N)N)C(=O)N[C@@H](CC(N)=O)C(=O)N[C@@H](CC(C)C)C(=O)N[C@H](C(=O)N1CCC[C@H]1C(=O)N[C@@H](CCCNC(=N)N)C(=O)N[C@H](C(=O)N[C@@H](CCC(=O)O)C(=O)N[C@@H](CO)C(=O)O)[C@@H](C)O)C(C)C)[C@@H](C)CC)C(C)C)[C@@H](C)CC [Cathelicidin-1],survival,10 μg/ml,high rate of death
same,survival,"40 μg/ml, listed as CATH",high survival rate
same,survival,"40 μg/ml, listed as cathelicidin-1",apical survival rate
